These results are taken from US20170158764A1.

Numbering of substitutions follows the chain as printed. These are yes or no findings as the source states them, for the method shown. Binding calls can cover weak binding; strength is not graded here.

Experiment [1] addresses canine PD-L1 with two C-terminal FLAG tags, stably expressed on NRK cells (NRK/cPDL1) (dog). The experiment can be described thus: flow cytometry on NRK/cPDL1 cells, antibody 0-10 ug/ml, anti-rat IgG-PE. (In general: A flow cytometer gives signals particle by particle.)
Experiment [2] deals with canine PD-1 with two C-terminal FLAG tags, stably expressed on NRK cells (NRK/cPD1) (dog). Nature of the experiment: flow cytometry on NRK/cPD1 cells, antibody 0-10 ug/ml, anti-rat IgG-PE.
The target in experiment [3] is canine PD-1 expressed on canine cells (PBMC / activated T cells) (dog). Nature of the experiment: flow cytometry of CD3-positive canine PBMC cultured with PMA/ionomycin or ConA, stained with the antibody.

B1: rat monoclonal antibody against cPDL1 G11-6 (antibody, IgG2a, V domains shown)
VH: EVQLVESGGGLVQPGRSLKLSCAASGFTFSDYYMAWVRQAPKKGLEWVASISYEDSSTYYGDSVKGRFTISRDNAKSTLYLQMNSLRSEDTATYYCARSAWNYPYWFAYWGQGTLVTVSS
VL: NTVMTQSPTSMFISVGDRVTVNCKASQNVGTNVDWYQQKTGQSPKLLIYGASNRYTGVPDRFTGSGSGTDFTLTISNMQAEDLAVYYCLQYNYNPWTFGGGTKLELK
As for B1, the binding result in experiment [1] is given as “binds”.

B2: rat monoclonal antibody against cPD1 3B7-D9 (antibody, IgG2a, V domains shown)
VH: EVQLVETGGGLVQPGRSLKLSCVASGFTFNNYWMSWTRQAPGKGLEWVASITNSGVSTYYPDSVKGRFTISRDNAQNTLYLQMNSLRSEDTATYFCTSALNWGYWYFDFWGPGTMVTVSS
VL: DIVMTQTPSSQAVSAGEKVTMSCKSSQSLLYSENKKNYLAWYQRKPGQSPKLLIYWASTRESGVPDRFIGSGSGTDFTLTISSVQAEDLAVYYCQQYYNFPLTFGSGTKLEIK
For B2, in experiment [2], the binding entry is “binds”.

B3: rat monoclonal antibody against cPD1 4F12-E6 (antibody, IgG2a, V domains shown)
VH: B2 VH with S35T, F95Y
VL: B2 VL with R44Q
For B3, the binding entry in experiment [3] and in experiment [2] was “binds” in each case.

B4: rat monoclonal antibody against cPDL1 H7-9 (antibody, IgG2a, V domains shown)
VH: QVQLKESGPGLVQPSQTLSLTCTVSGFSLTSYTVSWVRQPPGKGLEWIAAISSGGNTYSNSALKSRLSISRDTSKSQFFLKMNSLQTEDTAMYFCAREGYYGYNFDYWGQGVMVTVSS
VL: DIVMTQSPTSMSISVGDRVTMNCKASQNVGSNVDWYQQKTGQSPKLLIYKASNRYTGVPDRFTGSGSGTDFTFTISNMQAEDLAVYYCMQSNSYPLTFGSGTKLEIK
Turning to B4, the binding result in experiment [1] is on record as “binds”.
